Source: publication doi:10.1101/721530
These are yes or no findings as the source states them, for the method shown. In cells and extracts the contact can be indirect. Some binding calls cover weakened binding; strength is not graded here.

Sequences of proteins named here, by UniProt entry; tags and fusion partners are left off. Residues count along the entry.
UniProt Q9Z207: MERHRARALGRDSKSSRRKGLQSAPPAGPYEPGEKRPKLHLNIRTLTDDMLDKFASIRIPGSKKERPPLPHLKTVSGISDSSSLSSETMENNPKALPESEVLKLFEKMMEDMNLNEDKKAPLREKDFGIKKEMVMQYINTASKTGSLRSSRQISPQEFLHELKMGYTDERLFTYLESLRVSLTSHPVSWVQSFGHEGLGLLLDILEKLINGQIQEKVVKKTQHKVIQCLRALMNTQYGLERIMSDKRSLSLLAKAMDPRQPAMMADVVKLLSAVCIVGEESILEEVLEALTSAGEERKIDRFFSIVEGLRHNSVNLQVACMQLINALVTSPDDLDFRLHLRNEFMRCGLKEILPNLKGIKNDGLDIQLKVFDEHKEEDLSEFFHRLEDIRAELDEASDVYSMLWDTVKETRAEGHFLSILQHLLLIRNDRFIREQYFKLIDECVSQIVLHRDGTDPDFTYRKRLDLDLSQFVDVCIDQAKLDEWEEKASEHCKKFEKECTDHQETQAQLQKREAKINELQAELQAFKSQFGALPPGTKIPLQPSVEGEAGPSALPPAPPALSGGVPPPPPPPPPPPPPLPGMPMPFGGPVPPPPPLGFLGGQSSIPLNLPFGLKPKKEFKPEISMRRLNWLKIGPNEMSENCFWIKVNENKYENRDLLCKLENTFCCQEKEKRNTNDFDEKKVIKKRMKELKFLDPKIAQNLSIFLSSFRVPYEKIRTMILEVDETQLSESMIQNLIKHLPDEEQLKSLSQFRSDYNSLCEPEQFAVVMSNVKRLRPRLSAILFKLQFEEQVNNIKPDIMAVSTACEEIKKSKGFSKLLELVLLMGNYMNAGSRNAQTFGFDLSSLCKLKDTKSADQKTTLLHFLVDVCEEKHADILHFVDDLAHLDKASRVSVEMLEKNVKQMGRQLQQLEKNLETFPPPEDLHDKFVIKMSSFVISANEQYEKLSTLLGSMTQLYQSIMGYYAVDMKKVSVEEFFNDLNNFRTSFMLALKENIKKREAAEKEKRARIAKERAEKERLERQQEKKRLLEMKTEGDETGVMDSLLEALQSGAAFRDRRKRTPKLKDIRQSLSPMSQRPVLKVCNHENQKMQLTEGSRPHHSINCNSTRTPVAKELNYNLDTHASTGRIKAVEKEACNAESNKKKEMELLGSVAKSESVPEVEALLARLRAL
UniProt Q9NSV4: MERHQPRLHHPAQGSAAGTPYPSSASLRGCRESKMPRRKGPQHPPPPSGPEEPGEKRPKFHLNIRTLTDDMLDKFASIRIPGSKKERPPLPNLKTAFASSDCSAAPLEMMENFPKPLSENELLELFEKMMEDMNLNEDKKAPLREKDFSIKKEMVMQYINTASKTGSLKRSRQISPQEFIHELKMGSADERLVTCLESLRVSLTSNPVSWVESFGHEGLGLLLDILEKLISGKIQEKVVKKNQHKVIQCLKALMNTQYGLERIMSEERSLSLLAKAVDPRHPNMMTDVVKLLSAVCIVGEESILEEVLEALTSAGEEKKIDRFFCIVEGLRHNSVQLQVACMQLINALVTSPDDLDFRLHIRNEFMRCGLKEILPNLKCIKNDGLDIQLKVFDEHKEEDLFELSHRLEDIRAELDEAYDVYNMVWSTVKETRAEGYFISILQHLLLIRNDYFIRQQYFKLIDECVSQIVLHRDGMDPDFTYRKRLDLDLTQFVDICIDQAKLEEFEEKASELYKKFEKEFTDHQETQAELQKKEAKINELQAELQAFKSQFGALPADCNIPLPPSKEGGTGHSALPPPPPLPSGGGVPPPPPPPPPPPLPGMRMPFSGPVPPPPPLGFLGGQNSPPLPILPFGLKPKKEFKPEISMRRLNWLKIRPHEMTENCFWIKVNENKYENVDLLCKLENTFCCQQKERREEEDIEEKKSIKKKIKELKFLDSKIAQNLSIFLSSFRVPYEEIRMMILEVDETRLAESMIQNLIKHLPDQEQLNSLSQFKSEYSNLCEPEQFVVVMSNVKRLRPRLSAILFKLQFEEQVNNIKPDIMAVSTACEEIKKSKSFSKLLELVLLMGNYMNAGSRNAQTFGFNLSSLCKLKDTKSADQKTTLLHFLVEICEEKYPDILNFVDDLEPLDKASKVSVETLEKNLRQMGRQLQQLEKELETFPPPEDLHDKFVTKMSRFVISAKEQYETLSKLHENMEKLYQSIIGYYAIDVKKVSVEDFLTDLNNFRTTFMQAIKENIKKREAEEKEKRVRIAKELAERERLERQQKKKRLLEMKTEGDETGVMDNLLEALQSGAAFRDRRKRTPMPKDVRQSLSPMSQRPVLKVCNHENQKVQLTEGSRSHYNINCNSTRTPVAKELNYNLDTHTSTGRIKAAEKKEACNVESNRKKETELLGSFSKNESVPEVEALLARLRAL
UniProt P35222: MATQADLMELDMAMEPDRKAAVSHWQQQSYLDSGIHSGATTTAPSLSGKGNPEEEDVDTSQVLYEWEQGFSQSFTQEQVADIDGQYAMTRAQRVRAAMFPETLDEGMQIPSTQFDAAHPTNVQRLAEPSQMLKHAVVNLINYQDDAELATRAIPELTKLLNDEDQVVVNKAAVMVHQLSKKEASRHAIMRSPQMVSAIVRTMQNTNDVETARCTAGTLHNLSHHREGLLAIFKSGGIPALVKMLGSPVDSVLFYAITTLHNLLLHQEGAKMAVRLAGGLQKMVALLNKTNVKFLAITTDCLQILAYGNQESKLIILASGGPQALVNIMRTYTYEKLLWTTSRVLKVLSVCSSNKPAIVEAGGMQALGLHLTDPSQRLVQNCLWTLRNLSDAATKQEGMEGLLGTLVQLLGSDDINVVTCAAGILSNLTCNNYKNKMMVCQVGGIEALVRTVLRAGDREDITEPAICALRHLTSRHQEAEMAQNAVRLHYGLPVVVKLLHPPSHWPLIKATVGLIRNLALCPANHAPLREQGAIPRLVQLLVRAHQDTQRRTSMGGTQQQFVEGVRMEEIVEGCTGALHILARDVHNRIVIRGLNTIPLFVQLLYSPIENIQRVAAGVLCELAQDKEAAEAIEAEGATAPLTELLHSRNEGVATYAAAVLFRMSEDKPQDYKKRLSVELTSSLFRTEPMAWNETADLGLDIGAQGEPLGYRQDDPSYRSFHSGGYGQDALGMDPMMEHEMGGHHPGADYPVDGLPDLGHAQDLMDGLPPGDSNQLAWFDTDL
UniProt P19022, residues 160-906: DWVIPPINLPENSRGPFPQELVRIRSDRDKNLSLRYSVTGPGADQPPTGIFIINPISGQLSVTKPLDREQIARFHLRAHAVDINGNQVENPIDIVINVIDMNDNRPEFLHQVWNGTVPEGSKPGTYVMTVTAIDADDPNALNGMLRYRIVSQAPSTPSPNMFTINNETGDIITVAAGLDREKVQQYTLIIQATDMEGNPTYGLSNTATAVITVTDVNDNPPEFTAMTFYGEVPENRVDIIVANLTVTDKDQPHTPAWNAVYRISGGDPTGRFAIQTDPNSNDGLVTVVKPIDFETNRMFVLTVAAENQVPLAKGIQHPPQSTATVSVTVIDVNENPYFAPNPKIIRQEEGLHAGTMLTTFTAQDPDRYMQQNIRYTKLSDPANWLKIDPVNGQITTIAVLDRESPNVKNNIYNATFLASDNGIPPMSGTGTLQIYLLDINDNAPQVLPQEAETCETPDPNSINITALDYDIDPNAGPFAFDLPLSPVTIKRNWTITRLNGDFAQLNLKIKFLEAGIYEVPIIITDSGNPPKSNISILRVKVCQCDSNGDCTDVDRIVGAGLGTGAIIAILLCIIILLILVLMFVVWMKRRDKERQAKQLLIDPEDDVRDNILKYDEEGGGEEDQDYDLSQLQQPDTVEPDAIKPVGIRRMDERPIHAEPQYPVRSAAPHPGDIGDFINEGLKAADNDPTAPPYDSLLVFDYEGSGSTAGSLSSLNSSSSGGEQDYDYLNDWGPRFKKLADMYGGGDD
UniProt P35221: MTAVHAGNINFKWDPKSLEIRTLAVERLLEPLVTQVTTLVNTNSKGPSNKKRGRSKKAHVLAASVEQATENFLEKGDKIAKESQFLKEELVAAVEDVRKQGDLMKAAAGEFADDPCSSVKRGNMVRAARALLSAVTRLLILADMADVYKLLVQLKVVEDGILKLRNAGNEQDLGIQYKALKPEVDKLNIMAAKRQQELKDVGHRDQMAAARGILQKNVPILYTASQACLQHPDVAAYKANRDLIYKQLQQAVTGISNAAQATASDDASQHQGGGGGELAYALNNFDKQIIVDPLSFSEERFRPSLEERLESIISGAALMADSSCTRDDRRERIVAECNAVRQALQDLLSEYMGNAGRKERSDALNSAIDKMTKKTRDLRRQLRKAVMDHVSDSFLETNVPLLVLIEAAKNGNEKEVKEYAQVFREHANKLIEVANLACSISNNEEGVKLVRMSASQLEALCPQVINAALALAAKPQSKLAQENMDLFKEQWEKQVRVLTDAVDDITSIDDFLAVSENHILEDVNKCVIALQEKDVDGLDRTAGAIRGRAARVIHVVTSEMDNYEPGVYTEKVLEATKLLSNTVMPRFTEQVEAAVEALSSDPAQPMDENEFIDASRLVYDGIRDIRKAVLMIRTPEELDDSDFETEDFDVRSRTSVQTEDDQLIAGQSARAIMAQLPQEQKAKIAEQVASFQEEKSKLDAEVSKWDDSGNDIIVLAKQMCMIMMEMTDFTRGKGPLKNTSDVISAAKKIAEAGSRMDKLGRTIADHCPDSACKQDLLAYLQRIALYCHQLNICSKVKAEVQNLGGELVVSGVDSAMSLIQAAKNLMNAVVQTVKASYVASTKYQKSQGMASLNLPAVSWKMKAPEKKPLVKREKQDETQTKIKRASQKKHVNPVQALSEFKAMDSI
UniProt O60610: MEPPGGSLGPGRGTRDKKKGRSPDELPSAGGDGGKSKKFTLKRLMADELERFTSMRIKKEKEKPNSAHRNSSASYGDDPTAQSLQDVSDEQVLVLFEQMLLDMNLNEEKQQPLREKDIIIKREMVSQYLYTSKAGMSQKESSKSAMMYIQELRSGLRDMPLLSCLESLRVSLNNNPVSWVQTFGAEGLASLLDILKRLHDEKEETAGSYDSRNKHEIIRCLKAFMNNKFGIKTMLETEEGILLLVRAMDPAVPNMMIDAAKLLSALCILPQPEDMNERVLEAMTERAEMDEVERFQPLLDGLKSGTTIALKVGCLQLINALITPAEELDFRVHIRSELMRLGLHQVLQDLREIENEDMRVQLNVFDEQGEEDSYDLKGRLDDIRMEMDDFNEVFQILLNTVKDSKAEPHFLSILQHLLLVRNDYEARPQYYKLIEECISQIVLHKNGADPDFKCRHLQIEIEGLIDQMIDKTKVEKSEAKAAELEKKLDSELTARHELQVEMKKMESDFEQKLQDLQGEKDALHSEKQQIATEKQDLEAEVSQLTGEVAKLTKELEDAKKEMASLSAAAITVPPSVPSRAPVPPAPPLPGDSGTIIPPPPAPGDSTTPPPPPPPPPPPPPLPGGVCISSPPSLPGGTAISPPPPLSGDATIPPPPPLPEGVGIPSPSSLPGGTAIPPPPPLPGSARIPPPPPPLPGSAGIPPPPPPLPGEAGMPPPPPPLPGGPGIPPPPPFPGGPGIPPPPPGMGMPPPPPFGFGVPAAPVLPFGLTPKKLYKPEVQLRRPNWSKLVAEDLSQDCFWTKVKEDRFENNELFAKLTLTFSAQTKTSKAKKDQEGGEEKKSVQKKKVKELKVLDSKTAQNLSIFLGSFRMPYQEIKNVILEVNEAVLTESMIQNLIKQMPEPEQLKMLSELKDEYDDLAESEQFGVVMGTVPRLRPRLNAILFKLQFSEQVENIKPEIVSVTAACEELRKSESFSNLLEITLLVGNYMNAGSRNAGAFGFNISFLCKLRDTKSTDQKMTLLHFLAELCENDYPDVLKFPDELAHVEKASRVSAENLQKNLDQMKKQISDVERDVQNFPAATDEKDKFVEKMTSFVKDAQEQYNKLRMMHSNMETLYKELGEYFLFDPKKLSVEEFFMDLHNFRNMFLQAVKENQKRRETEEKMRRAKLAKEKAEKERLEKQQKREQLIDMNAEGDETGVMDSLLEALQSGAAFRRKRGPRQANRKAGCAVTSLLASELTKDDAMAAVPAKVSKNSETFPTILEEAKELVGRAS

Tests used:
[1] = biological target: GFP-mDia2 (UniProt Q9Z207); assay: co-IP
[2] = biological target: mDia2 (mammalian Diaphanous-related formin 2) (human (endogenous in OVCA429)) (UniProt Q9NSV4); assay: co-IP
[3] = biological target: β-catenin (human (endogenous in OVCA429)) (UniProt P35222); assay: proximity ligation
[4] = biological target: mDia2 (mammalian Diaphanous-related formin 2) (human (endogenous in OVCA429)) (UniProt Q9NSV4); assay: proximity ligation
[5] = biological target: GFP-β-catenin (UniProt P35222); assay: co-IP
[6] = biological target: β-catenin (human (endogenous in OVCA429)) (UniProt P35222); assay: co-IP
[7] = biological target: N-cadherin (human (endogenous in OVCA429)) (UniProt P19022); assay: co-IP

For “HA-α-catenin (from UniProt P35221 1-906)”, the binding [1] was “binds”.

With αE-catenin (from UniProt P35221 1-906) the binding [2] was “binds”, the binding [3] was “binds” and the binding [4] was “binds”.

For β-catenin (from UniProt P35222 1-781), the binding [2] was “binds” and the binding [4] was “binds”.

Flag-mDia2 (from UniProt Q9Z207 1-1171) was tested, and the binding [5] was “binds”.

With “mDia1 (Diaphanous-related formin 1) (from UniProt O60610 1-1272)” the binding [6] was “no binding” and the binding [7] was “no binding”.
